# Results as given in paper PMC3591269.
# Sequences of proteins named here, by UniProt entry; tags and fusion partners are left off. A change or cut given only in a name is not applied to a line headed by its entry.
# UniProt Q9LG05: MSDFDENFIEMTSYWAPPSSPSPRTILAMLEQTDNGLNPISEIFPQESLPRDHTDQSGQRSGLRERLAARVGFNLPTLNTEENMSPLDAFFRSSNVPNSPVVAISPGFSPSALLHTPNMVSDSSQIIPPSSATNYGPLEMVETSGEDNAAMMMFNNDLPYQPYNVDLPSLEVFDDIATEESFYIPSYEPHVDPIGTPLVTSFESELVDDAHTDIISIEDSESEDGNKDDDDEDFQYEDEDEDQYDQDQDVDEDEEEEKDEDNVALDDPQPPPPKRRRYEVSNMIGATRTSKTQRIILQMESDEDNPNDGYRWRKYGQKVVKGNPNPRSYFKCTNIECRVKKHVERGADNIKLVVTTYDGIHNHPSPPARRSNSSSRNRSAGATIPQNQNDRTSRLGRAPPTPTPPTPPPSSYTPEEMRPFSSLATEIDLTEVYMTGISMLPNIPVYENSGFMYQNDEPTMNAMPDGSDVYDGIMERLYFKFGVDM
# Molecular target: MINI3 (WRKY10) (Arabidopsis) (UniProt Q9LG05)
# Experiment: EMSA
# Details: much weaker affinity than W1/Wi; 25 mM Hepes-KOH pH 7.2, 40 mM KCl, 1 mM DTT, 1 mM EDTA, 10% glycerol, 0.01 uM ZnCl2, 2 ug poly-dIdC, 3 ng probe, 1 ug protein in 20 ul; room temperature 30 min; 6% gel; recombinant protein; residues 1-485; protein details: His-tag (C-terminal as stated, pDEST17); label: alpha-35S dATP (PCR); probe letters rebuilt from the primers and the genome
sequence,measurement,value
GACATTACTGTCATCGTATATGAAACATTATTCTAATAATTGTTATAAAAATACCGGAGTTAAACTAGATTGATTATCACCGAGATTTTATATTTGTCAAGATATATAGATGGTCCATCGAAAGGATTGGTGCTTCCAAAACCTTCGATGTCACCTCCTGA (double strand) [W3-box fragment (MINI3 promoter)],binding result,binds more weakly

# For at least one entry, the source does not settle the construct or the ends of the probe. The comparison behind a weaker result is the experiment's own reference, which may not be listed here.
